This is an account of results in article PMC2927601.

Amino acid sequences for entries named in this document (tags omitted). A change or cut given only in a name is not applied to a line headed by its entry.
UniProt O75340: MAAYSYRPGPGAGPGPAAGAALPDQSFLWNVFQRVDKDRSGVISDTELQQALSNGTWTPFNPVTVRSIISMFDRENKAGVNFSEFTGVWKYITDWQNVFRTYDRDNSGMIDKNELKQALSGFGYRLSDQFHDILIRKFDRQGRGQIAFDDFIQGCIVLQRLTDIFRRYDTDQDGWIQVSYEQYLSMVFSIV

Test [1] concerns the target GST-fused ALG-2 F122A mutant (human) (UniProt O75340). In words: pull-down; GST-fused ALG-2 proteins on glutathione Sepharose beads, cleared lysates of HEK293 cells; pulldown products analysed by Western blotting with specific antibodies; as described previously [40]; only the target purified.
Test [2] has as its target GST-fused ALG-2, wild type (human) (UniProt O75340). The description is as above.

Results are given in words; binding and its absence hold for the method and conditions named. In cells and extracts the contact can be indirect. Some entries that bind do so weakly or less than the wild type.

B1: annexin A7, endogenous protein (protein, UniProt P20073 1-488)
chain: MSYPGYPPTGYPPFPGYPPAGQESSFPPSGQYPYPSGFPPMGGGAYPQVPSSGYPGAGGYPAPGGYPAPGGYPGAPQPGGAPSYPGVPPGQGFGVPPGGAGFSGYPQPPSQSYGGGPAQVPLPGGFPGGQMPSQYPGGQPTYPSQINTDSFSSYPVFSPVSLDYSSEPATVTQVTQGTIRPAANFDAIRDAEILRKAMKGFGTDEQAIVDVVANRSNDQRQKIKAAFKTSYGKDLIKDLKSELSGNMEELILALFMPPTYYDAWSLRKAMQGAGTQERVLIEILCTRTNQEIREIVRCYQSEFGRDLEKDIRSDTSGHFERLLVSMCQGNRDENQSINHQMAQEDAQRLYQAGEGRLGTDESCFNMILATRSFPQLRATMEAYSRMANRDLLSSVSREFSGYVESGLKTILQCALNRPAFFAERLYYAMKGAGTDDSTLVRIVVTRSEIDLVQIKQMFAQMYQKTLGTMIAGDTSGDYRRLLLAIVGQ
In the case of B1, the binding result in test [1] and in test [2] was “binds” throughout.
